Source: article PMC5253655

Tests used:
Assay in all cases: co-IP; Flag immunoprecipitation (anti-Flag antibody or normal mouse serum, Protein G Sepharose) from metaphase-arrested Xenopus CSF egg extracts expressing 2xFlag-huWdr8 constructs from added mRNA; 23 °C; washes TBS-T and TBS; Western blot
[1] = target: T1, 2xFlag-huWdr8 wild-type (human) (UniProt Q9P2S5)
T1 sequence: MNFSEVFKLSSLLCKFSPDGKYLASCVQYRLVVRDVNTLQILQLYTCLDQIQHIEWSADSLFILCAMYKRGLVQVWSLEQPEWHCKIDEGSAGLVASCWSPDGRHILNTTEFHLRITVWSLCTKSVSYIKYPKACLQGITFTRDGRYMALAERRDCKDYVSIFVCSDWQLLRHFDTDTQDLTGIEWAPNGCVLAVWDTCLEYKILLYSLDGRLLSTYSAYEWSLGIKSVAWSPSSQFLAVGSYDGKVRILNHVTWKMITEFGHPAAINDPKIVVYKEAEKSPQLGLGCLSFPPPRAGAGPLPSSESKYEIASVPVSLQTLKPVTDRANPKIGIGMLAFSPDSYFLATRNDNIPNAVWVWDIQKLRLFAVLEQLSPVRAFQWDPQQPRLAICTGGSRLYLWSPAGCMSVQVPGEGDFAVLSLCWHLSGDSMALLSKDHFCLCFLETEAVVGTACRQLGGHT

[2] = target: T2, 2xFlag-196/197AA (human) (UniProt Q9P2S5)
T2 sequence: T1 sequence with W196A, D197A

[3] = target: T3, 2xFlag-359/360AA (human) (UniProt Q9P2S5)
T3 sequence: T1 sequence with W359A, D360A

- binding [1]: binds
- binding [2]: no binding
- binding [3]: no binding
Substance: SSX2IP

Changes are numbered by the printed parent chain. Results are given in words; binding and its absence hold for the method and conditions named. In cells and extracts the contact can be indirect. For part of these data: Binding calls can cover weak binding; strength is not graded here. Sequences can lack the tags named with a protein.
